No constants are given. Whether binding was seen depends on the method and setting. In cells and extracts the contact can be indirect. A yes stands for co-enrichment or nearness to the bait. Other partners may have been found. A no says only that the protein was not detected with the bait. Tags and fused reporters may be left off the sequences shown.

Chains of the proteins cited; added tags and fusions are not shown.
UniProt P51587: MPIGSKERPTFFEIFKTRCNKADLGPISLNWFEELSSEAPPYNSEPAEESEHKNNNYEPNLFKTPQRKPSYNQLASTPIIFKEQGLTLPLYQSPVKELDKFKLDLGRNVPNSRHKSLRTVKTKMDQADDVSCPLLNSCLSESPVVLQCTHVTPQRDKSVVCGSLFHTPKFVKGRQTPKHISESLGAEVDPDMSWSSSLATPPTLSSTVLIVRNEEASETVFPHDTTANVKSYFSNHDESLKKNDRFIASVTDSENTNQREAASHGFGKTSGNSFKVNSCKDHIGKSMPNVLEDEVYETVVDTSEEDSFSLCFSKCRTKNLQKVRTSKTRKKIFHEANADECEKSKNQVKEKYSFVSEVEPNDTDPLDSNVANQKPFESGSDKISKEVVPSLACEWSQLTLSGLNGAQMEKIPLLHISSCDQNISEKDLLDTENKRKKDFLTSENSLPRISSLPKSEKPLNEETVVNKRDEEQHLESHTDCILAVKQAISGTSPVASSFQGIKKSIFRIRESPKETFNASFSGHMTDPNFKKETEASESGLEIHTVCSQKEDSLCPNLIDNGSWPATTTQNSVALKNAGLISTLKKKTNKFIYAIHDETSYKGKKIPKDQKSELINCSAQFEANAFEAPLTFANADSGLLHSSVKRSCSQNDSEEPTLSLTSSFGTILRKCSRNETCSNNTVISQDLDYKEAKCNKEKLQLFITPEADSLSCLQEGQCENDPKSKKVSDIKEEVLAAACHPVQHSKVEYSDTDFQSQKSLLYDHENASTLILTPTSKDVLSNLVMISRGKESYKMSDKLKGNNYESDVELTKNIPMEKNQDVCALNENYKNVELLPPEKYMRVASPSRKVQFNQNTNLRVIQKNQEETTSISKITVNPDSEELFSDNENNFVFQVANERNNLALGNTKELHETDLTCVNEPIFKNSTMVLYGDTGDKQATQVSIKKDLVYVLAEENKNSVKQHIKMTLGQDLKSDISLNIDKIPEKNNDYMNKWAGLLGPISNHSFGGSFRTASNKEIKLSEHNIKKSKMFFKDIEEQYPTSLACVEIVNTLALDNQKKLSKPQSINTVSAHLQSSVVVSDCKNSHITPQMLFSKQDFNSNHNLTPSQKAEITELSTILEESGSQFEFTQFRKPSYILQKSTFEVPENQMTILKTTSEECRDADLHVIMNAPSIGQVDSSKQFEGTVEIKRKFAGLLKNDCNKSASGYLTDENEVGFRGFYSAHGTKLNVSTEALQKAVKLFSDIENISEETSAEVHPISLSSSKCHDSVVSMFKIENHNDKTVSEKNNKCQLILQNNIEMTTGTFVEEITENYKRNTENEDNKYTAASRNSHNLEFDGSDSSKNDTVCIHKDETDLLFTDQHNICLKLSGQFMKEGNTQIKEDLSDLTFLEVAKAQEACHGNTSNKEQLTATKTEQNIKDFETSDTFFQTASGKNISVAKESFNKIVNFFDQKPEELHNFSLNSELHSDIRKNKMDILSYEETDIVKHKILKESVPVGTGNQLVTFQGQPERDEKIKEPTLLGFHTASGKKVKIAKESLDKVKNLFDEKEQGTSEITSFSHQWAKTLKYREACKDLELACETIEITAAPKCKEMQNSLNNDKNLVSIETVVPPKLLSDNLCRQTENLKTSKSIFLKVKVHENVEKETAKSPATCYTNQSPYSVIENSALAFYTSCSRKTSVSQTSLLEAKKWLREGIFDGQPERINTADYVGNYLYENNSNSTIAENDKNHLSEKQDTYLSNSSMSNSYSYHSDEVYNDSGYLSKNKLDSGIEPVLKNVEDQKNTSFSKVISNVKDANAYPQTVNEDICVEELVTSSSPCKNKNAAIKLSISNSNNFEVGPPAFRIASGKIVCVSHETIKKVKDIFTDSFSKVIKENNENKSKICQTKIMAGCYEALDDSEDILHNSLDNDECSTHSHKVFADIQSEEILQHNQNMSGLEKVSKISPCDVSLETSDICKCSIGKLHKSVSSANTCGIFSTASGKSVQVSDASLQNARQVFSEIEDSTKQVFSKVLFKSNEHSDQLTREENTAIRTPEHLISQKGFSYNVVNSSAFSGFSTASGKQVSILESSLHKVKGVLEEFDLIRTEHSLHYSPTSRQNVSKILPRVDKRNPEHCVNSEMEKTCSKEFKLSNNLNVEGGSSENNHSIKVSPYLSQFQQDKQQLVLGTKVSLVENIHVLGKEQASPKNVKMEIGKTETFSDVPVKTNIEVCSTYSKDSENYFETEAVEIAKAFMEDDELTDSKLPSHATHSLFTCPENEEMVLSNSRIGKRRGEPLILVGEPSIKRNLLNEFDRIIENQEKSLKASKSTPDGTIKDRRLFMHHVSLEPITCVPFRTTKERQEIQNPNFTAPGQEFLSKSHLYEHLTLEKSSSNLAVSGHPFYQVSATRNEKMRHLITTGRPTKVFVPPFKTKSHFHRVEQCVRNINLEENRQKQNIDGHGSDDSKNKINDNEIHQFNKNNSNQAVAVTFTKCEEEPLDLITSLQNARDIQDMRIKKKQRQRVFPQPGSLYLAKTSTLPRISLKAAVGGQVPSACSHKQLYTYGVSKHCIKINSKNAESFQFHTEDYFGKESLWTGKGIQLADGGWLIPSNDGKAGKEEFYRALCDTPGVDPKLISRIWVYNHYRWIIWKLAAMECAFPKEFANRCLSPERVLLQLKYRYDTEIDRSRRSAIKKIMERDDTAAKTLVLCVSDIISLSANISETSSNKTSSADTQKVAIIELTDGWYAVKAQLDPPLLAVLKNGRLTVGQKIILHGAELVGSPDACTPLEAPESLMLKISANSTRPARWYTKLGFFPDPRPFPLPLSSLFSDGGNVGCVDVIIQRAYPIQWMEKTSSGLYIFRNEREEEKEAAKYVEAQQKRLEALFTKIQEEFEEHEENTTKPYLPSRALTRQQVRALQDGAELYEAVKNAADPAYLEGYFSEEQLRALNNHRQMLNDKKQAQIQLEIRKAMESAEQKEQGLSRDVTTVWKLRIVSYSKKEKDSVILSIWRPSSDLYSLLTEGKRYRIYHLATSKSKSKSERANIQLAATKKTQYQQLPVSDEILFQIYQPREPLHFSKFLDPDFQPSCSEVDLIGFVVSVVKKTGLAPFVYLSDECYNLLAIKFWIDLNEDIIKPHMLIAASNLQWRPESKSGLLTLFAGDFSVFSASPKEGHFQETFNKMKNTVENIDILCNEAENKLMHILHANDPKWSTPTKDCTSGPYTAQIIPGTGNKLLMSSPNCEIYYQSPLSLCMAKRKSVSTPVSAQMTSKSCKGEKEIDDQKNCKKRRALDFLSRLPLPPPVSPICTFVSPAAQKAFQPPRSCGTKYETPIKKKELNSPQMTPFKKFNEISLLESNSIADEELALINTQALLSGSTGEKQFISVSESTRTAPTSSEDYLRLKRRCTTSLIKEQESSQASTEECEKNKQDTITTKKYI
UniProt Q9BXW9: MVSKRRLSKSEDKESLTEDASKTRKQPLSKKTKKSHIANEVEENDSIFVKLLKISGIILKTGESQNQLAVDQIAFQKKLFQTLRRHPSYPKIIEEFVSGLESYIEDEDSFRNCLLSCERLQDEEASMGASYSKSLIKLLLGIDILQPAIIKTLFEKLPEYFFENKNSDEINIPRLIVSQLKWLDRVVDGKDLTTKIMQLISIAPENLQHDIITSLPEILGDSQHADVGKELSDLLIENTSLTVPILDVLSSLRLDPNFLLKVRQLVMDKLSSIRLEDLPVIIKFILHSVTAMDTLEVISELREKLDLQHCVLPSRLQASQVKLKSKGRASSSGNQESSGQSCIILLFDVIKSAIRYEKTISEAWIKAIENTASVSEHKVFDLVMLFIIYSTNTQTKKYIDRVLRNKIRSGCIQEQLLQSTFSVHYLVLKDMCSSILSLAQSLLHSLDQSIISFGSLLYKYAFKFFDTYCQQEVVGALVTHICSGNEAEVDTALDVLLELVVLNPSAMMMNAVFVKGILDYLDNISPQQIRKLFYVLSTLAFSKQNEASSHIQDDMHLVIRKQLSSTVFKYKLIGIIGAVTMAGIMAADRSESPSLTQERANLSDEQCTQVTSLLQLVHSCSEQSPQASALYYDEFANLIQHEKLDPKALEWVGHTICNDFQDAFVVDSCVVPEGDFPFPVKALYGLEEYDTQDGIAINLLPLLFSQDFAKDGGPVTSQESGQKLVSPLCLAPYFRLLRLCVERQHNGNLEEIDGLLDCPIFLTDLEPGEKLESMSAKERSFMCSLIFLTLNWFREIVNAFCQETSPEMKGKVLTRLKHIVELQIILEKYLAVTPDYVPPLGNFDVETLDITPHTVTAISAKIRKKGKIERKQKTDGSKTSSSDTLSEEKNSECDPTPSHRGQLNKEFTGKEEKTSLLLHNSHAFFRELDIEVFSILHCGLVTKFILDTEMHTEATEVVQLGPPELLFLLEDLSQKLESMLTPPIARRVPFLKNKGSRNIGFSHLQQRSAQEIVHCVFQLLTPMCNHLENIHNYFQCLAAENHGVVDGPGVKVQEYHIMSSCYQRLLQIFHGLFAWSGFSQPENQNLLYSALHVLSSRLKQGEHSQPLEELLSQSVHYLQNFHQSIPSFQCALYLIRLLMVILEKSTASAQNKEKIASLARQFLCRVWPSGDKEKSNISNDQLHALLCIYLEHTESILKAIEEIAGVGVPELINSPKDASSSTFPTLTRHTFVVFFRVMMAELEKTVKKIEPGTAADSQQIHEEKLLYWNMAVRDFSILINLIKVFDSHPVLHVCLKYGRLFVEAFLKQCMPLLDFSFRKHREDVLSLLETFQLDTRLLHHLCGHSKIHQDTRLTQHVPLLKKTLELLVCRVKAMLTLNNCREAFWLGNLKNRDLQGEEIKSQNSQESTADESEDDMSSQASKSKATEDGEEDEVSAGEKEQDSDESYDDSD

These results are taken from publication PMC4591814.

The chains are these.
T1: FLAG and HA epitope-tagged human DNA polymerase ν (POLN) (human) (UniProt Q7Z5Q5)
T1 sequence: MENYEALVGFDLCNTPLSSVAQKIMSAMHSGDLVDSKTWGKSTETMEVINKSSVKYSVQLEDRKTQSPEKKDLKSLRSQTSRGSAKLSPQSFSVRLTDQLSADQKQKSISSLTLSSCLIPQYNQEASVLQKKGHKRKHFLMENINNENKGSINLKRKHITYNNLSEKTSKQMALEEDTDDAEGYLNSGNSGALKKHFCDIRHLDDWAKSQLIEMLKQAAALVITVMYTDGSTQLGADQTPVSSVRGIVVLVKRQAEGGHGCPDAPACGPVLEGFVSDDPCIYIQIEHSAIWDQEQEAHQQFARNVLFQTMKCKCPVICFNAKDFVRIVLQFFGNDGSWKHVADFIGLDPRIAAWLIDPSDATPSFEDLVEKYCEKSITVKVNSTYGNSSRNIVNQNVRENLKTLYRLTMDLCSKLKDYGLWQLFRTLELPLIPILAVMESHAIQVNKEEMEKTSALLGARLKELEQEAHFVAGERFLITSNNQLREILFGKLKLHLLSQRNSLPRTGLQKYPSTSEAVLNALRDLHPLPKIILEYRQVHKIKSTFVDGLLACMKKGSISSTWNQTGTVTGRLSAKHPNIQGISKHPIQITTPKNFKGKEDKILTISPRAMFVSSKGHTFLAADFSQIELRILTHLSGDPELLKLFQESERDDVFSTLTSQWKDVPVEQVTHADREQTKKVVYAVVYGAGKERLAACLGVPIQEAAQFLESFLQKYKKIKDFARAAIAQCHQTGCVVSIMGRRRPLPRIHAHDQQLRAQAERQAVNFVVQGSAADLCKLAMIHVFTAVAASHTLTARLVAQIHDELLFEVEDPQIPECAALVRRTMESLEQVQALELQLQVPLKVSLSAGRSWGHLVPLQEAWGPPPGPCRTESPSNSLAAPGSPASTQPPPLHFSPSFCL

B1: HELQ (endogenous) (protein, UniProt Q8TDG4 1-1101)
chain: MDECGSRIRRRVSLPKRNRPSLGCIFGAPTAAELVPGDEGKEEEEMVAENRRRKTAGVLPVEVQPLLLSDSPECLVLGGGDTNPDLLRHMPTDRGVGDQPNDSEVDMFGDYDSFTENSFIAQVDDLEQKYMQLPEHKKHATDFATENLCSESIKNKLSITTIGNLTELQTDKHTENQSGYEGVTIEPGADLLYDVPSSQAIYFENLQNSSNDLGDHSMKERDWKSSSHNTVNEELPHNCIEQPQQNDESSSKVRTSSDMNRRKSIKDHLKNAMTGNAKAQTPIFSRSKQLKDTLLSEEINVAKKTVESSSNDLGPFYSLPSKVRDLYAQFKGIEKLYEWQHTCLTLNSVQERKNLIYSLPTSGGKTLVAEILMLQELLCCRKDVLMILPYVAIVQEKISGLSSFGIELGFFVEEYAGSKGRFPPTKRREKKSLYIATIEKGHSLVNSLIETGRIDSLGLVVVDELHMIGEGSRGATLEMTLAKILYTSKTTQIIGMSATLNNVEDLQKFLQAEYYTSQFRPVELKEYLKINDTIYEVDSKAENGMTFSRLLNYKYSDTLKKMDPDHLVALVTEVIPNYSCLVFCPSKKNCENVAEMICKFLSKEYLKHKEKEKCEVIKNLKNIGNGNLCPVLKRTIPFGVAYHHSGLTSDERKLLEEAYSTGVLCLFTCTSTLAAGVNLPARRVILRAPYVAKEFLKRNQYKQMIGRAGRAGIDTIGESILILQEKDKQQVLELITKPLENCYSHLVQEFTKGIQTLFLSLIGLKIATNLDDIYHFMNGTFFGVQQKVLLKEKSLWEITVESLRYLTEKGLLQKDTIYKSEEEVQYNFHITKLGRASFKGTIDLAYCDILYRDLKKGLEGLVLESLLHLIYLTTPYDLVSQCNPDWMIYFRQFSQLSPAEQNVAAILGVSESFIGKKASGQAIGKKVDKNVVNRLYLSFVLYTLLKETNIWTVSEKFNMPRGYIQNLLTGTASFSSCVLHFCEELEEFWVYRALLVELTKKLTYCVKAELIPLMEVTGVLEGRAKQLYSAGYKSLMHLANANPEVLVRTIDHLSRRQAKQIVSSAKMLLHEKAEALQEEVEELLRLPSDFPGAVASSTDKA

The assay deals with T1, FLAG and HA epitope-tagged human DNA polymerase ν (POLN) (human). As to the kind of experiment: affinity purification with mass spectrometry; FLAG-HA-POLN recovered from HeLa S3 nuclear extract by sequential anti-FLAG (M2 agarose, FLAG peptide elution) and anti-HA immunoprecipitation, washes in 100 mM KCl buffer 0.1B; gel sections analysed by LC-MS/MS; empty-vector purification as control.
“BRCA2 (endogenous) (from UniProt P51587 1-3418)”: the binding result is recorded as “binds”.
To “FANCD2 (endogenous) (from UniProt Q9BXW9 1-1451)” belongs “no binding”; to B1, “no binding”.
